Results reported in PubChem BioAssay (EPA / NIEHS).
This list was built around the results that the source calls inconclusive (neither active nor inactive); the mix of calls is not that of the screen. Potencies beside an inconclusive call are fits to weak or partial responses and may not hold up. Active and inactive are the calls of the source. How the source made its calls: active means hit-call score of the fitted dose curve at least 0.9, where 1 is the maximum; inconclusive means response in the unintended direction; inactive means score below 0.9.

Test system: frog Androgen Receptor (AR), gene 399456
Experiment: ATG_frAR_XSP1: Attagene TRANS-FACTORIAL Multi-Species (XSP1) HepG2 Assay for frog Androgen Receptor (AR) (AID 2283770)
Procedure: ATG_XSP1_multi-species_TRANS is a cell-based, multiplexed assay created by modifying the existing Attagene TRANS-FACTORIAL system to include a panel of nuclear receptors from some or all the following species: human (Homo sapiens), mouse (Mus musculus), frog (Xenopus laevis), zebrafish (Danio rerio), chicken (Gallus gallus), and turtle (Chrysemys picta). The ECOTOX-FACTORIAL format uses HepG2, a human liver cell line, with measurements taken at 24 hours after chemical dosing in a 24-well plate. Xsp1 included 3 nM 6-alpha-fluorotestosterone to partially stimulate the androgen receptor.ATG_frAR_XSP1 is one of 29 assay components measured or calculated from the ATG_XSP1_multi-species_TRANS assay. It is designed to make measurements of mRNA induction, a form of inducible reporter, as detected with fluorescence intensity signals by Reverse transcription polymerase chain reaction (RT-PCR) and Capillary electrophoresis technology.The assay endpoint ATG_frAR_XSP1 was analyzed in the positive analysis fitting direction relative to DMSO as the negative control and baseline of activity. Using a type of inducible reporter, measures of mRNA for gain-of-signal activity can be used to understand the reporter gene at the transcription factor-level as they relate to the gene AR. Furthermore, this assay endpoint can be referred to as a primary readout, because this assay has produced multiple assay endpoints where this one serves a reporter gene function. To generalize the intended target to other relatable targets, this assay endpoint is annotated to the nuclear receptor intended target family, where the subfamily is steroidal.
Human liver HepG2 cells are transiently transfected with multiple reporter transcription units (MRTUs) in 6-well plates using FuGene 6 reagent (Roche; 3 ml FuGene/1 mg DNA). The MRTU constructs are regulated by a cis-regulating element (promoter). […] A major difference between the CIS and TRANS system is that in CIS activities of endogenous TFs are measured, whereas the TRANS assay evaluates changes in activities of exogenous, chimeric NR-Gal4 proteins. […] At the end of 24 hour incubation, total RNA was isolated using TriZol reagent (Invitrogen). The isolated RNA is then reverse-transcribed using oligo(dT) primer and Mo-MLV reverse transcriptase (Invitrogen) with DNAse I (Ambion) treatment for 30 min. The one-tenth of the produced cDNA was amplified by PCR using Taq DNA polymerase (Invitrogen) and two reporter sequence-specific primers. The PCR products were fluorescently labeled by primer extension with 6-arboxyfluorescein (6-FAM) 5'-labeled reporter sequence-specific primer (2 min at 95 C, 20 s at 68 C and 10 min at 72 C) and these products were digested with 5U of HpaI (New England Biolabs) for 2h at 37 C. The fragments were purified using Qiaquick PCR columns (Qiagen), analyzed on an ABI 3130xL genetic analyzer (Applied Biosystems) with peak positions identified by using a set of X-rhodamine (ROX)-labeled MapMarker1000 molecular weight standards (BioVentures). The raw capillary electrophoresis data was processed using Attagraph software (Attagene).

SMILES | AC50 | outcome
CCCCC(CC)COC(=O)c1ccc(O)cc1 (stereo not drawn) | inconclusive: 11100 nM | 
C#C[C@]1(O)CC[C@H]2[C@@H]3CCc4cc(O)ccc4[C@H]3CC[C@@]21C | inconclusive: 35 nM | 
Cc1oc(-c2ccccc2)nc1CCOc1ccc(C[C@H](Nc2ccccc2C(=O)c2ccccc2)C(=O)O)cc1 | inconclusive: 100 nM | 
CCCCC(CC)COC(=O)c1ccccc1C(=O)O (stereo not drawn) |  | inactive
CC/C(=C(\c1ccccc1)c1ccc(OCCN(C)C)cc1)c1ccccc1 | inconclusive: 5550 nM | 
Oc1ccc(C(c2ccc(O)cc2)C(Cl)(Cl)Cl)cc1 | inconclusive: 3810 nM | 
CC(C)(c1cc(Br)c(O)c(Br)c1)c1cc(Br)c(O)c(Br)c1 |  | inactive
C[C@]12CC[C@@H]3c4ccc(O)cc4CC[C@H]3[C@@H]1CCC2=O | inconclusive: 100 nM | 
CC/C(=C(/CC)c1ccc(O)cc1)c1ccc(O)cc1 | inconclusive: 100 nM | 
CN(C)C(=N)N=C(N)N | inconclusive: 153000 nM | 
CC(=O)O[C@]1(C(C)=O)CC[C@H]2[C@@H]3C=C(Cl)C4=CC(=O)[C@@H]5C[C@@H]5[C@]4(C)[C@H]3CC[C@@]21C | inconclusive: 73.1 nM | 
C[C@]12CC[C@@H]3c4ccc(O)cc4CC[C@H]3[C@@H]1C[C@@H](O)[C@@H]2O | inconclusive: 189 nM | 
CN(CCOc1ccc(CC2SC(=O)NC2=O)cc1)c1ccccn1 (stereo not drawn) | inconclusive: 177 nM | 

Structural class, the compounds so far with a Cl atom
SMILES | AC50 | outcome
Oc1ccc(C(c2ccc(O)cc2)C(Cl)(Cl)Cl)cc1 | inconclusive: 3810 nM | 
CC(=O)O[C@]1(C(C)=O)CC[C@H]2[C@@H]3C=C(Cl)C4=CC(=O)[C@@H]5C[C@@H]5[C@]4(C)[C@H]3CC[C@@]21C | inconclusive: 73.1 nM | 
